Results on two molecules are retold here after patent US20240350544A1 (Takeda / Millennium, published 2024).

Protein sequences, listed by entry. Tags and fused reporters are not part of them. Lines headed by an entry give the natural chain unless they say otherwise; changes in a name come on top.
UniProt Q02223: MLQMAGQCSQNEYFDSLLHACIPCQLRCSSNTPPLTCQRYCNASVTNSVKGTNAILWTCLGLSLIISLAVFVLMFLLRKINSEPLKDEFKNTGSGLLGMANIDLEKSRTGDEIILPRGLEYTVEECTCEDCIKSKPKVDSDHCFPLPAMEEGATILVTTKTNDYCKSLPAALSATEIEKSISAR

These are yes or no findings as the source states them, for the method shown. Some binding calls cover weakened binding; strength is not graded here.

The assay has as its target human BCMA protein (Octet; construct not stated) (human) (UniProt Q02223). Nature of the assay: Octet (BLI), human BCMA.

B1: Ab 2, lead anti-BCMA clone of Table 4 (antibody, V domains shown)
VH: QITLRESGGDVVQPGRSLRLSCAASGFTFSSYAIHWVRQAPGKGLEWVAVTWHDGSNKYYAESVMGRFTISRDNSKNTLYLHMNSLRAEDTGVYYCARAKFGEPQYFQHWGQGTLVTVSS
VL: DIVMTQSPSFLSASVGDRVTITCRASQGINNYLAWYQQKPGIAPKLLIYAASTLQSGVPSRFGGSGSGTEFTLTISSLQPEDFATYYCQQLKSYPFTFGPGTKVEIK
As to B1, the binding entry is on record as “binds”.

B2: Ab 3, lead anti-BCMA clone of Table 4 (antibody, V domains shown)
VH: EVQLVESGGDVVQPGRSLRLSCAASGFTFSSYAIHWVRQAPGKGLEWVAVTWHDGSNKYYAESVMGRFTISRDNSKNTLYLHMNSLRAEDTGVYYCARAKFGEPQYFQHWGQGTTVTVSS
VL: DIVMTQSPSFLSASVGDRVTITCRASQGISSYLAWYQQKPGKAPKLLIYAASTLQSGVPSRFSGSGSGTEFTLTISSLQPEDFATYYCQQLNSYPFTFGPGTKVDIK
For the molecule B2, the binding entry is given as “binds”.
